Values joined by “and” are separate entries in the source; they are usually repeats but may differ in a detail not shown here. Equal values may be shown once. The list shows a part of the results. Shown are side measurements of this screen, not its main read-out; they come without a call. Compounds called inactive in the main read-out are mostly missing here. The note in brackets gives the kind of curve behind each potency; many fits are weak.
Assay: Cell signaling CRE-BLA (Fsk stim)
Settings: CHO CRE-bla reporter (cAMP response element driving beta-lactamase), forskolin EC10, beta-lactamase ratio; measured here: 460 nm blue channel
Description: NIH Molecular Libraries Screening Centers Network [MLSCN]
NIH Chemical Genomics Center [NCGC]
Assay Provider: Marshall W. Nirenberg, U.S. National heart lung & blood institute
Memories persist for different lengths of time, from seconds or minutes to a lifetime. There are two kinds of memory: short-term memory (STM) and long-term memory (LTM). STM lasts for minutes to hours, which maybe mediated by modifications of molecules involved in synaptic functions. LTM lasts for days or longer, and may be due to the formation of new synapses or restructuring of existing synapses. LTM, but not STM, requires gene transcription and synthesis of proteins. CREB (cyclic-AMP Responsive Element Binding Protein) is one of the candidates plays an important role for enhancement of some types of LTM. CREB, a family of transcription factors, regulates the transcription of genes containing cAMP Responsive Elements (CRE). CRE is a nucleotide sequence often found in the promoter regions of genes that are binding sites for CREB.
Using a beta-lactamase reporter-gene under control of cAMP responsive element, a cell-based assay [CellSensor(TM) CRE-bla CHO developed by Invitrogen Corp.] was used to measure forskolin-induced signaling. Library compounds were measured for their ability to modulate positively or negatively the action of EC10 NKH 477, a water soluble forskolin, on reporter gene activity. Compounds were screened in a titration series in 1536-well format. Positive and negative modulators were identified based on the AC50 values derived from the screening data.
NCGC Assay Protocol Summary
2000 cells/5uL in Opti-MEM medium containing 0.5% dialyzed FBS, 0.1 mM NEAA, 1 mM sodium pyruvate and 10 mM HEPES was dispensed into 1536-well plates and cells were cultured at 37 degrees Celsius overnight. […] And then the plates were incubated at 37 degrees Celsius for 3 hours. 1 uL of CCF4-dye mixture was added to each well. After incubated at room temperature for 2 hours the plates were measured on an EnVision plate reader at Excitation 405nm, Emission1=460nm and Emission 2=530nm. The %Activity was determined from the ratio of 460nm/530nm.
Keywords: NIH Roadmap, MLSCN, MLSMR, qHTS, NCGC, CRE, beta-lactamase reporter-gene assay.

| Compound | AC50 |
| --- | --- |
| COC(=O)COc1cc(C)cc2oc(=O)c3c(c12)CCCC3 | 12.6 µM [rising, partial curve] |
| CN(C)c1ccc(N=Nc2ccccc2)cc1 | 12.6 µM [falling, partial curve, poor fit] |
| C[C@@H](Cc1ccccc1)NCCC(c1ccccc1)c1ccccc1 | 10 µM [falling, partial curve, poor fit] |
| C[C@H]1CCCC=CC2C[C@H](O)C[C@@H]2[C@H](O)/C=C\C(=O)O1 (stereo not given in full) | 0.501 µM [falling, full curve] |
| CC(C)CC(C)Nc1ccc(Nc2ccccc2)cc1 (stereo not given) | 25.1 µM [falling, single point] |
| COc1ccc(N2C(=O)CC(N3CC=C(c4ccccc4)CC3)C2=O)cc1 (stereo not given) | 31.6 µM [falling, single point] |
| N#CC1=C(N)Oc2c(c(=O)oc3ccccc23)C1c1cccnc1 (stereo not given) | 5.01 µM [falling, partial curve] |
| CCOC(=O)CC(SP(=O)(OC)OC)C(=O)OCC (stereo not given) | 2.51 µM [falling, full curve, poor fit] |
| Oc1ccc2c3c1O[C@H]1c4c(c5ccccc5n4Cc4ccccc4)C[C@]4(O)[C@H](C2)N(CC2CC2)CC[C@@]314 | 20 µM [falling, partial curve, poor fit] |
| C[C@H]1CCC[C@H](O)CCCCCc2cc(O)cc(O)c2C(=O)O1 | 10 µM [rising, single point] |
| COC(=O)c1cc(COc2cc(C)cc3oc(=O)c4c(c23)CCC4)c(C)o1 | 5.01 µM [falling, single point] |
| Cn1ncnc2c(=O)n(C)c(=O)nc1-2 | 0.794 µM [falling, full curve, poor fit] |
| CC(=O)[O-].CC(=O)[O-].O.O.[Cd+2] | 1 µM [rising, full curve, poor fit] |
| Cc1[nH]c2ccccc2c1C1=CCNCC1 | 10 µM [falling, partial curve] |
| C=CCCN1C[C@@H]2C[C@H](C1)c1cccc(=O)n1C2 | 15.8 µM [falling, partial curve, poor fit] |
| CCC(=NCC1CCCO1)c1c(O)[nH]c(=O)[nH]c1=O (stereo not given) | 12.6 µM [rising, partial curve, poor fit] |
| CCOC(=O)c1c(-c2ccccc2)oc2ccc(OC(=O)N(C)C)cc12 | 15.8 µM [rising, partial curve] |
| COc1ccccc1CN1CCN(C(=O)Cc2ccccc2)CC1 | 0.158 µM [rising, full curve] |
| O=[As](O)(O)c1ccc(Cc2ccc([As](=O)(O)O)cc2)cc1 | 3.98 µM [rising, single point] |
| c1ccc2c(CN3CCN(C4CCCCC4)CC3)c[nH]c2c1 | 2.51 µM [falling, full curve] |
| CCOP(=O)(C#CC(C)(C)C)C(O)(c1ccccc1)C(F)(F)F (stereo not given) | 25.1 µM [rising, single point] |
| CC(C)(O)[C@@H]1[C@H]2OC(=O)[C@@H]1[C@]1(O)C[C@H]3O[C@]34C(=O)O[C@H]2[C@@]14C (tested in a mixture with another compound) | 15.8 µM [falling, single point] |

| Compound | AC50 |
| --- | --- |
| CCCCP(=O)(O)CCC(=O)O | 3.98 µM [falling, full curve] |
| CCOc1cc2[nH]c(=S)n(CCCC(=O)N3CCC4(CC3)OCCO4)c(=O)c2cc1OCC | 0.00398 µM [falling, full curve, poor fit] |
| C[C@@H]1CCC/C=C\[C@H]2C[C@H](O)C[C@@H]2[C@H](O)/C=C\C(=O)O1 | 15.8 µM [falling, partial curve] |
| O=c1[nH]c(=O)n(CCC2=CCCCC2)c(O)c1C=NC1CCN(Cc2ccccc2)CC1 | 2.51 µM [rising, partial curve] |
| O=S(=O)(c1ccc(Cl)cc1)N1CN2CCN(C2)C1 | 0.126 µM [falling, single point] |
| COc1cccc(-c2nc(CS(=O)CC(=O)N3CCC4(CC3)OCCO4)c(C)o2)c1 (stereo not given) | 0.00316 µM [falling, full curve, poor fit] |
| O=C(NC1(C(F)(F)F)Oc2ccc(Cl)cc2O1)N1CCC2(CC1)OCCO2 (stereo not given) | 7.94 µM [falling, partial curve, poor fit] |
| CCOCN(C(=O)CCl)c1c(C)cccc1CC | 15.8 µM [falling, partial curve, poor fit] |
| COc1ccccc1-n1c(O)c(C=NCc2ccc3c(c2)OCO3)c(=O)[nH]c1=O | 12.6 µM [falling, partial curve] |
| C=C(C)CN1CC[C@@]23c4c5ccc(O)c4O[C@H]2c2[nH]c4ccccc4c2C[C@]3(O)[C@@H]1C5 | 15.8 µM [falling, partial curve] |
| CN1CCN(c2ccc([N+](=O)[O-])c3[nH]o[n+](=O)c23)CC1 | 3.98 µM [rising, single point] |
| CCCCn1c(O)c(C(C)=NCCCN(C)C)c(=O)[nH]c1=O | 3.98 µM [falling, single point] |
| CC1=NN(c2ccccc2)C(=O)[C@@H]1N=Nc1ccc([As](=O)(O)O)c(O)c1 | 3.98 µM [falling, partial curve, poor fit] |
| CC(C)(C)n1c(O)c(C=Nc2ccc3c(c2)CCC3)c(=O)[nH]c1=O | 15.8 µM [rising, single point] |
| COc1ccc(N=C(C)c2c(O)n(C3CCCCC3)c(=O)[nH]c2=O)c(OC)c1 | 0.1 µM [rising, full curve, poor fit] |
| COc1cc2c(cc1OC)[C@H](C)NCC2 | 12.6 µM [rising, partial curve, poor fit] |
| CC1(C)N(O)C(c2ccc(C(=O)O)cc2)=[N+]([O-])C1(C)C | 3.16 µM [rising, partial curve, poor fit] |
| CN(C)[C@@H]1C(=O)C(C(N)=O)=C(O)[C@]2(O)C(=O)C3=C(O)c4c(O)cccc4[C@@](C)(O)[C@@H]3C[C@@H]12 | 0.0794 µM [rising, full curve, poor fit] |
| NNC(N)=O | 12.6 µM [falling, single point] |
| O=c1c2ccccc2nc(CSc2ncnc3nc[nH]c23)n1-c1ccccc1 | 0.2 µM [rising, full curve, poor fit] |
| CCOc1cccc(C2NCc3ccccc3-n3cccc32)c1O (stereo not given) | 3.16 µM [falling, full curve, poor fit] |
| NCCc1ccc(O)cc1 | 25.1 µM [falling, partial curve] |

An excerpt from above in order of number of heavy atoms, rising:

| Compound | AC50 |
| --- | --- |
| O=S(=O)(c1ccc(Cl)cc1)N1CN2CCN(C2)C1 | 0.126 µM [falling, single point] |
| COc1cccc(-c2nc(CS(=O)CC(=O)N3CCC4(CC3)OCCO4)c(C)o2)c1 (stereo not given) | 0.00316 µM [falling, full curve, poor fit] |
| CCOc1cc2[nH]c(=S)n(CCCC(=O)N3CCC4(CC3)OCCO4)c(=O)c2cc1OCC | 0.00398 µM [falling, full curve, poor fit] |

The results go on.

| Compound | AC50 |
| --- | --- |
| CCCS(=O)(=O)N1CCC(C(=O)N2CCC3(CC2)OCCO3)CC1 | 0.251 µM [rising, full curve, poor fit] |
| CCCNC(=O)c1c(N)n(Cc2ccc3c(c2)OCO3)c2nc3ccccc3nc12 | 0.398 µM [rising, full curve] |
| O=c1ccc2cc(O[C@@H]3O[C@@H](CO)[C@@H](O)[C@@H](O)[C@H]3O)c(O)cc2o1 | 15.8 µM [rising, partial curve] |
| Nc1c(C(=O)NC2CCCC2)c2nc3ccccc3nc2n1CC1CCCO1 (stereo not given) | 12.6 µM [rising, partial curve] |
| CCC(=NCc1ccco1)c1c(O)n(-c2ccc(OC)cc2)c(=O)[nH]c1=O | 12.6 µM [rising, partial curve] |
| CCCCn1c(O)c(C(C)=NCc2ccc(F)cc2)c(=O)[nH]c1=O | 25.1 µM [rising, partial curve] |
| CCOC(=O)C(O)(c1ccc(N)c(OC)c1)C(F)(F)F (stereo not given) | 25.1 µM [rising, single point] |
| CN1C(=O)C(Cc2c[nH]c3ccccc23)C(=O)N(C)C1=O | 15.8 µM [falling, partial curve, poor fit] |
| COc1ccc2c3c([nH]c2c1)C(C)=NCC3 | 10 µM [rising, partial curve] and 25.1 µM [rising, partial curve] |
| Cn1c2ccccc2c2c(C(=O)N3CCC4(CC3)OCCO4)cn(C3CCCC3)c(=O)c21 | 0.398 µM [rising, full curve, poor fit] |
| C#CCN1C(C)=C(C(=O)CCO)[C@@H](c2cccc(-n3oo3)c2)C(C(=O)OC)=C1C | 1.26 µM [rising, full curve, poor fit] |
| CC[C@H]1CN2CC[C@@H]1C[C@@H]2[C@H](O)c1ccnc2ccccc12 | 0.251 µM [rising, full curve, poor fit] |
| CC(C)(Cc1c[nH]c2ccc(Cl)cc12)NCCOc1ccccc1OCC1CC1 | 25.1 µM [falling, partial curve, poor fit] |
| Cc1ccc(C[N+](C)(C)C)o1 | 12.6 µM [falling, single point] |
| CCN1CCC2(CCNC2)C1 (stereo not given) | 10 µM [rising, single point] |
| C=CP(=O)(O)c1ccccc1 | 0.1 µM [rising, partial curve] |
| COc1ccccc1N1CCN(Cc2ccc(Br)s2)CC1 | 0.631 µM [rising, partial curve] |
| N#Cc1cc2c(nc1SCC(=O)Nc1ccc(Cl)cc1)C1CCN2CC1 | 15.8 µM [rising, single point] |
| COc1ccc2c(c[n+](C)c3c4cc5c(cc4ccc23)OCO5)c1OC | 12.6 µM [rising, partial curve] |
| CCc1cccc(CC)c1N(COC)C(=O)CCl | 31.6 µM [falling, partial curve, poor fit] |
| CCCCn1c(O)c(C=NC2CC3CCC2(C)C3(C)C)c(=O)[nH]c1=O (stereo not given) | 12.6 µM [rising, partial curve] |

Source: PubChem BioAssay AID662 (National Center for Advancing Translational Sciences (NCATS), 2007)
